# Assay: MP-catalyzed peroxynitrite decomposition monitored at 302 nm
# Format: biochemical
# Conditions: for peroxynitrite decomposition slower than the MP's oxidation by peroxynitrite: absence of ascorbate
# Experimental: Peroxynitrite (100 μM) was added to rapidly stirred cuvettes at 37° C. containing the indicated concentrations of MPs in 0.1 M potassium phosphate, pH 7.4. Ascorbate was added to 150 μM where indicated. Peroxynitrite decomposition was monitored at 302 nm using a Hewlett-Packard diode-array spectrophotometer. Apparent rates (kapparents^−1, average of n=3) were plotted versus MP concentration to determine rate constants in M^−1s^−1.
# Reactions contained the indicated concentration of FeTCPPin 1.4 ml of 0.1 M potassium phosphate, pH 7.4 in the absence or presence to 150 μM ascorbic acid. Peroxynitrite (100 μM) was added to rapidly stirred cuvettes at 37° C. and the decay of peroxynitrite was monitored continuously at 302 nm. Decay data were fitted to the equation describing first order decay to obtain apparent decay rates (kapparent sec^−1). Apparent decay rates as a function of FeTCPP were fitted by linear regression and the rate constant was obtained slope of the line.
# Peroxynitrite (100 μM) decomposition was determined at 302 nm using a Hewlett-Packard diode-array spectrophotometer fitted with a temperature-controlled cuvette chamber and a water-driven cuvette stirrer. Bolus additions of peroxynitrite were made to vigorously stirred cuvettes containing varying concentrations of MPs (see Table III) while data were collected at a rate of ten points/sec. […] Each reaction was repeated three times and only the first additions of peroxynitrite were averaged. Data were exported for fitting and plotting. Apparent rates of peroxynitrite decomposition were plotted as a function of metalloporphyrin concentration (as shown in FIG. 5) to determine concentration-independent rate constants at 37° C.
# Rates of peroxynitrite (100 μM) decomposition were determined at different MP concentrations. Ascorbate was added to 150 μM where indicated. […] Apparent rate constants were plotted versus MP concentration (as in FIG. 5A,B) to determine true rate constants in M^−1s^−1±standard error.
Structure (SMILES),peroxynitrite decomposition faster than in the absence of ascorbate (150 μM ascorbate),peroxynitrite decomposition slower than the MP's oxidation by peroxynitrite,peroxynitrite decomposition slower than the stoichiometric oxidation by peroxynitrite (presence of ascorbate)
"C[n+]1ccc(-c2c3nc(c(-c4cc[n+](C)cc4)c4ccc([n-]4)c(-c4cc[n+](C)cc4)c4nc(c(-c5cc[n+](C)cc5)c5ccc2[n-]5)C=C4)C=C3)cc1.[Cl-].[Cl-].[Cl-].[Cl-].[Cl-].[Mn+3] [MnTMPyP, Manganese (III) meso-tetra-(N-methyl-4-pyridyl)-porphine chloride]",38 fold,76 fold,2 fold
"C=CC1=C(C)c2cc3[n-]c(cc4nc(cc5[n-]c(cc1n2)c(C)c5CCC(=O)O)C(CCC(=O)O)=C4C)c(C)c3C=C.[Fe] [FePPIX, Iron (III) protoporphyrin IX dichloride]",–,2.8 fold,–
